In publication PMC7862700:
The list shows a part of the results, in another mix than the full data. At the low end of the ranking the order means little.

Each sequence was assayed against SPI1 (UniProt P17947) (assay: DAPPL (digital affinity profiling via proximity ligation, sequencing)). Conditions: 10 mM Tris-HCl pH 7.5, 50 mM NaCl, 1 mM DTT, 4% glycerol, room temperature, 30 min; GST-TFs on glutathione beads, 16-mer random dsDNA library, 0.1% …; high values mean tight binding; double strand, one strand shown; scale: fold enrichment (6-mer frequency, TF over GST control).
CGGGTC showed a binding signal of 0.706. For ACACAG, the binding signal was 0.847. Work on ATCGTG yielded a binding signal of 0.426. In the case of CGGAGG, the binding signal is reported as 0.263. With GAGTGA the binding signal was 0.375. For CGGTCA, the binding signal was 0.743. For GAGGGG, the binding signal was 0.5. GGGACG showed a binding signal of 0.466. For GGCAAC, the binding signal was 0.88. In the case of CAAGCG, the binding signal is reported as 0.856. In the case of AAGACC, the binding signal is reported as 0.844. With GACGCC the binding signal was 0.912. CGTAGT showed a binding signal of 0.792. With GGGGAG the binding signal was 0.384. GCGGGG showed a binding signal of 0.458. With GTCAGT the binding signal was 0.635. With AGGTAG the binding signal was 0.586. In the case of GGACTA, the binding signal is reported as 0.767. AGAGCA gave a binding signal of 0.753. TGGGAG was tested, and the binding signal was 0.414. In the case of GCAGTG, the binding signal is reported as 0.506. CCATGT was tested, and the binding signal was 0.804. CCAGGT was tested, and the binding signal was 0.702. AGTTGT gave a binding signal of 0.832. Sequence GACACA has a binding signal of 0.87. GTCGTT gave a binding signal of 0.773. CAGCTG gave a binding signal of 0.828. AGATAC showed a binding signal of 0.875. Sequence CCGGGA has a binding signal of 0.464. For CCGTAG, the binding signal was 0.879. Work on CGTGTT yielded a binding signal of 0.723. GGAGAA gave a binding signal of 0.333. For GGCCGC, the binding signal was 0.796. Sequence TGAGCA has a binding signal of 0.748. CGCAGA showed a binding signal of 0.777. For CGAGGC, the binding signal was 0.664. AGTCAC was tested, and the binding signal was 0.859. TGAGGT was tested, and the binding signal was 0.646. Work on ACGTCG yielded a binding signal of 0.604. In the case of TCAGTG, the binding signal is reported as 0.817.
